Values from PubChem BioAssay AID602196 (INSERM, 2012)
The whole screen tested about 23,000 reagents; shown is a random part of them. 455 of them (2%) were called active. 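Active includes both protection and sensitisation; some change values fall well beyond the stated -50 to +50 range.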 A number with no mark means an inactive call. Further read-outs or replicates are left out here. Not stated in the record: the amount of reagent.

Purpose: 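Genes whose knock-down alters cisplatin killing of lung cancer cells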
System: human A549 lung cancer cells
Reagent: siRNA pair against human genes
Time to read-out: 48 h transfection before cisplatin; time from cisplatin to read-out not stated
Treatment: cisplatin at a dose killing half of control-siRNA cells; exact dose and duration not given
Read-out: 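Shift in cisplatin death relative to control siRNA, from -50 (all cells die) to +50 (no cells die); siRNAs harmful on their own scored 0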
Reading the numbers: two-siRNA summed score (-2 to +2): higher = both siRNAs protect from cisplatin killing; -2 means both sensitise; mean protection from cisplatin (shift in death): higher = protection from cisplatin killing
Active means: 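Each siRNA scores 0 if harmful alone by LDH or WST-1, otherwise +1 if it reduces and -1 if it increases cisplatin killing; a gene is active when both siRNAs agree (sum +2 or -2)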
Calls: active = both siRNAs shift cisplatin killing the same way; inactive = no consistent shift, or siRNA harmful alone

Against OR2T8 [SID131520912], the entry reads two-siRNA summed score (-2 to +2) = 1; mean protection from cisplatin (shift in death) (%) = 11.5.
Against CADPS [SID131509675] the deposit lists two-siRNA summed score (-2 to +2) = 0; mean protection from cisplatin (shift in death) (%) = 2.4.
After knock-down of LOC442148 [SID131517240], the record shows two-siRNA summed score (-2 to +2) = 0; mean protection from cisplatin (shift in death) (%) = 12.8.
RNF34 [SID131522618] gave two-siRNA summed score (-2 to +2) = 1; mean protection from cisplatin (shift in death) (%) = 20.7.
With knock-down of SRSF1 [SID131514889], the screen gave two-siRNA summed score (-2 to +2) = 0; mean protection from cisplatin (shift in death) (%) = 8.4.
After knock-down of YWHAG [SID131501183], the screen gave two-siRNA summed score (-2 to +2) = -1; mean protection from cisplatin (shift in death) (%) = -11.7.
Knock-down of LRRC57 [SID131501462] came out at: two-siRNA summed score (-2 to +2) = -1; mean protection from cisplatin (shift in death) (%) = -9.6.
LOC388503 [SID131518145] showed two-siRNA summed score (-2 to +2) = 0; mean protection from cisplatin (shift in death) (%) = 16.9.
S-I3 [SID131514673] showed two-siRNA summed score (-2 to +2) = 0; mean protection from cisplatin (shift in death) (%) = 8.1.
For ZMAT3 [SID131504889], the entry reads two-siRNA summed score (-2 to +2) = 0; mean protection from cisplatin (shift in death) (%) = -4.2.
Depletion of TMEM135 [SID131509895] gave: two-siRNA summed score (-2 to +2) = 0; mean protection from cisplatin (shift in death) (%) = 2.6.
Knock-down of KLRG2 [SID131503161] came out at: two-siRNA summed score (-2 to +2) = 0; mean protection from cisplatin (shift in death) (%) = -12.6.
After knock-down of SOX9 [SID131522181] the results were two-siRNA summed score (-2 to +2) = 1; mean protection from cisplatin (shift in death) (%) = 16.7.
Against IGFL4 [SID131504453], the values are two-siRNA summed score (-2 to +2) = 0; mean protection from cisplatin (shift in death) (%) = -5.4.
For IGFL4 [SID131520081], the entry reads two-siRNA summed score (-2 to +2) = 1; mean protection from cisplatin (shift in death) (%) = 8.6.
Knock-down of LHX3 [SID131501927] resulted in: two-siRNA summed score (-2 to +2) = -1; mean protection from cisplatin (shift in death) (%) = -6.6.
After knock-down of YPEL1 [SID131504710], the screen gave two-siRNA summed score (-2 to +2) = 0; mean protection from cisplatin (shift in death) (%) = -4.7.

In a second layout: entries from further up
{"target": "ZMAT3", "PubChem SID": "SID131504889", "two-siRNA summed score (-2 to +2)": 0, "mean protection from cisplatin (shift in death) (%)": -4.2}
{"target": "TMEM135", "PubChem SID": "SID131509895", "two-siRNA summed score (-2 to +2)": 0, "mean protection from cisplatin (shift in death) (%)": 2.6}
{"target": "KLRG2", "PubChem SID": "SID131503161", "two-siRNA summed score (-2 to +2)": 0, "mean protection from cisplatin (shift in death) (%)": -12.6}
{"target": "SOX9", "PubChem SID": "SID131522181", "two-siRNA summed score (-2 to +2)": 1, "mean protection from cisplatin (shift in death) (%)": 16.7}

More records:
Depletion of HM13 [SID131509657] gave: two-siRNA summed score (-2 to +2) = 0; mean protection from cisplatin (shift in death) (%) = 2.4.
Against CHCT1 [SID131507990] the deposit lists two-siRNA summed score (-2 to +2) = 0; mean protection from cisplatin (shift in death) (%) = 0.5.
PDZK1IP1 [SID131520719] showed two-siRNA summed score (-2 to +2) = 1; mean protection from cisplatin (shift in death) (%) = 10.9.
AKR1C2 [SID131506312] showed two-siRNA summed score (-2 to +2) = 0; mean protection from cisplatin (shift in death) (%) = -1.7.
Against OR8J3 [SID131503821], the entry reads two-siRNA summed score (-2 to +2) = 0; mean protection from cisplatin (shift in death) (%) = -7.6.
With knock-down of ZNF221 [SID131519700], the record shows two-siRNA summed score (-2 to +2) = 1; mean protection from cisplatin (shift in death) (%) = 7.1.
Against PPP1R7 [SID131509661], the entry reads two-siRNA summed score (-2 to +2) = 0; mean protection from cisplatin (shift in death) (%) = 2.4.
With knock-down of GNAI3 [SID131504458] the results were two-siRNA summed score (-2 to +2) = 0; mean protection from cisplatin (shift in death) (%) = -5.3.
With knock-down of LOC442697 [SID131518074], the record shows two-siRNA summed score (-2 to +2) = 0; mean protection from cisplatin (shift in death) (%) = 16.3.
Depletion of NPEPPSP1 [SID131517258] came out at: two-siRNA summed score (-2 to +2) = 0; mean protection from cisplatin (shift in death) (%) = 12.8.
For TBCEL [SID131515517], the entry reads two-siRNA summed score (-2 to +2) = 0; mean protection from cisplatin (shift in death) (%) = 9.3.
CSNK2A1 [SID131512766] scored two-siRNA summed score (-2 to +2) = 0; mean protection from cisplatin (shift in death) (%) = 5.8.
With knock-down of GPR31 [SID131518582] the results were two-siRNA summed score (-2 to +2) = 0; mean protection from cisplatin (shift in death) (%) = 22.1.
Silencing of TRPV2 [SID131506958] came out at: two-siRNA summed score (-2 to +2) = 0; mean protection from cisplatin (shift in death) (%) = -0.7.
